Some of the results follow. Further columns of the screen follow, without active or inactive calls. Most of these compounds were active or inconclusive in the main read-out, so they are no random draw. Potencies come from curve fits of mixed quality, noted in brackets.
Test: qHTS Assay for Lipid Storage Modulators in Drosophila S3 Cells;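 for cell number change: cells counted by Cell Tracker Red CMTPX staining in the red channel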
Conditions: BODIPY lipid droplet fluorescence, 18-24 h; for cell number change: measured here: cell count max response, cells fed with added oleic acid
Method in brief: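 Drosophila S3 cells loaded with oleic acid (400 uM, as added) and compounds at several concentrations; lipid droplets imaged by 488-nm laser-scanning cytometry, 500–530 nm intensity and object ratio to cell channel. Percent activity normalized to 20 uM Triacsin C.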

[1] = measured here: lipid fluorescence (Fed channel) AC50, cells fed with added oleic acid
[2] = measured here: cell number channel AC50, cells fed with added oleic acid

| Compound | cell number change | AC50 [1] | AC50 [2] |
| --- | --- | --- | --- |
| CCn1c(=O)c(C(=O)Nc2ccccc2)c(O)c2ccccc21 | 5.89% | 7.31 µM [rising, partial curve, poor fit] |  |
| CC(C)c1cccc(C(C)C)c1NC(=O)COC(=O)c1ccc2c(c1)S(=O)(=O)c1ccccc1C2=O | 7.72% |  | 2.06 µM [falling, partial curve] |
| NC(=O)NCCc1ccccc1 | 15.3% | 6.51 µM [falling, single point] |  |
| CC(NC(=O)CN(c1ccc(F)cc1)S(C)(=O)=O)c1ccccc1 (stereo not drawn) |  | 10.3 µM [falling, partial curve] |  |
| CCOC(=O)C(CCCOc1ccc(C(C)CC)cc1)C(=O)OCC (stereo not drawn) | 3.37% | 0.116 µM [falling, full curve, poor fit] |  |
| COc1cc(OC)cc(C(=O)O/N=C(\N)c2ccccn2)c1 | 10.7% | 16.4 µM [rising, single point] |  |
| CCC(=O)N1c2ccc(S(=O)(=O)N3CCN(C)CC3)cc2CC1C (stereo not drawn) | 25.2% | 29.1 µM [falling, single point] |  |
| COc1cccc(C(=O)N2CCN(C(=O)Cc3ccccc3)CC2)c1 | -1.43% | 3.26 µM [falling, single point] |  |
| CC(C)(C)n1nnnc1C(c1cccs1)N(Cc1cccnc1)Cc1ccco1 (stereo not drawn) |  | 6.51 µM [rising, partial curve] |  |
| CCN(CC(=O)Nc1ccc(OC)cc1)C(=O)Cc1ccc(OC)c(S(=O)(=O)N2CCOCC2)c1 | 3.97% | 2.06 µM [rising, partial curve] |  |
| CSc1ccccc1NC(=O)CSc1n[nH]c(C)c1[N+](=O)[O-] | -14.8% | 2.91 µM [falling, single point] |  |
| Cc1ccc(-c2csc(N3CCN(c4cc5c(cc4Cl)nc(C)n5CCN4CCCCC4)CC3)n2)cc1 | 16.2% | 0.731 µM [falling, full curve, poor fit] |  |
| CC(C)CC(c1nnnn1CC1CCCO1)N1CCN(C2CCCC2)CC1 (stereo not drawn) | -0.0718% | 6.51 µM [falling, single point] |  |
| CCN(CC)S(=O)(=O)c1ccc(N2CCN(S(=O)(=O)c3ccc4c(c3)OCCO4)CC2)nc1 |  |  | 4.61 µM [rising, partial curve, poor fit] |
| CCc1cccc(CC)c1NC(=O)NC1CCCCC1 | 2.25% |  |  |
| C[C@@H]1CN(C(=O)c2nc3ccc(Cl)cn3c2CN2CCc3sccc3C2)C[C@H](C)O1 | -12.2% | 3.66 µM [falling, single point] |  |
| CC[C@@H]1Cc2cc(O)ccc2C2=C1c1ccc(O)cc1C[C@H]2CC | -43.8% | 29.1 µM [falling, single point] | 20.6 µM [falling, single point] |
| COc1ccc(NS(=O)(=O)c2cccc(C(=O)N/N=C/c3ccccn3)c2)cc1 |  | 0.13 µM [rising, partial curve, poor fit] | 0.116 µM [rising, full curve] |
| Cc1ccc(C(=O)C2COC(=O)C2)cc1 (stereo not drawn) | 0.671% | 0.116 µM [rising, full curve, poor fit] |  |
| COc1ccc(S(=O)(=O)Nc2cccnc2)cc1OC | 24% | 6.51 µM [rising, single point] |  |
| CC(Oc1cccc(Cl)c1)C(=O)N1CCCN(C)CC1 (stereo not drawn) | -4.18% | 29.1 µM [falling, single point] |  |

| Compound | cell number change | AC50 [1] | AC50 [2] |
| --- | --- | --- | --- |
| Cc1ccccc1-c1ccc(=O)n(CC(=O)Nc2ccc(C(=O)N3CCCC3)cc2)n1 | -18.5% |  |  |
| Clc1ccc(Nc2ccc(Cl)nn2)cc1 | -0.335% | 0.058 µM [falling, full curve, poor fit] |  |
| Cc1cccc(N(C(=O)c2snc(C(N)=O)c2N)C(C(=O)NCC2CCCO2)c2c[nH]c3ccccc23)c1 (stereo not drawn) | 10.3% | 0.116 µM [rising, single point] |  |
| Cc1ccccc1CN1CCN(CC(=O)NCc2ccccc2)CC1 | 7.69% |  |  |
| O=C1CN(C(=O)CSc2nnc(-c3ccccc3)n2Cc2ccc3c(c2)OCO3)c2ccccc2N1 | -70.8% | 29.1 µM [falling, partial curve] | 23.1 µM [falling, single point] |
| O=C(C[n+]1cc(Br)cc2ccccc21)c1ccc(Cl)cc1 |  | 29.1 µM [rising, single point] |  |
| Cc1ccc(OCCSc2ncnc3nc[nH]c23)cc1 | -16.9% |  |  |
| Cc1nc2ccccc2c(=O)n1/N=C/c1ccccc1OC(F)F | 1.65% | 0.116 µM [rising, full curve, poor fit] |  |
| Cc1nnc(SCC(=O)NCC(=O)Nc2ccc(F)c(F)c2F)n1Cc1ccccc1 | -10.1% | 16.4 µM [falling, partial curve] |  |
| Cc1sc(NC(=O)C2CCCCC2C(=O)O)c(C(N)=O)c1C (stereo not drawn) | -19.6% | 2.91 µM [falling, full curve] |  |
| FC(F)(F)c1ccccc1/C=N/n1c(C2CCCCC2)n[nH]c1=S | -38.5% | 32.6 µM [falling, single point] | 32.6 µM [falling, single point] |
| C=CCn1c(C)cc(C(=O)CN2NS(=O)(=O)c3ccccc3C2=O)c1C |  |  | 6.51 µM [rising, single point] |
| O=C(CSc1nncs1)Nc1nnc(-c2ccccc2)o1 |  | 0.58 µM [falling, full curve] | 0.731 µM [falling, full curve, poor fit] |
| CN(CC(=O)NCC(c1ccco1)N1CCCCC1)S(=O)(=O)c1ccc(Cl)cc1 (stereo not drawn) | -100% |  | 14.6 µM [falling, partial curve] |
| COCCCNC(=S)N(CCO)Cc1cc2cc3c(cc2[nH]c1=O)OCO3 | 2.12% | 0.146 µM [rising, full curve, poor fit] |  |
| CCn1c(=N)n(CC(=O)c2ccc(Cl)c(Cl)c2)c2ccccc21 | 2.6% |  |  |
| COc1ccc(NS(=O)(=O)c2cc(NC(=O)C3CCCCC3)ccc2N2CCOCC2)cc1 | 32.7% | 1.46 µM [rising, partial curve] | 5.8 µM [rising, partial curve] |
| CCCCN(CC)C(=O)Cn1cnc2sc(C)c(S(=O)(=O)N3CCC(C)CC3)c2c1=O | 36.7% | 11.6 µM [falling, partial curve] | 18.4 µM [rising, partial curve, poor fit] |
| CCN(CC)S(=O)(=O)c1ccc(OC(C)C)c(NC(=O)c2c3c(nc4ccccc24)CCN(Cc2ccccc2)C3)c1 | 40.6% | 1.84 µM [rising, full curve] | 1.46 µM [rising, full curve, poor fit] |
| O=C(NCCSCc1ccco1)c1ccc(=O)[nH]c1 | -23.8% |  |  |
| CCNc1nc(Oc2ccc(OC)cc2)cc(C(F)(F)F)n1 | -23.1% | 18.4 µM [falling, single point] |  |

Grouped by structure, the entries above with a CF3 group.

| Compound | cell number change | AC50 [1] | AC50 [2] |
| --- | --- | --- | --- |
| FC(F)(F)c1ccccc1/C=N/n1c(C2CCCCC2)n[nH]c1=S | -38.5% | 32.6 µM [falling, single point] | 32.6 µM [falling, single point] |
| CCNc1nc(Oc2ccc(OC)cc2)cc(C(F)(F)F)n1 | -23.1% | 18.4 µM [falling, single point] |  |

(more compounds)

| Compound | cell number change | AC50 [1] | AC50 [2] |
| --- | --- | --- | --- |
| CCn1ccc(=O)c2cc3c(cc21)OCO3 | 25.7% |  |  |
| O=C(CCc1nnc2n(Cc3ccccc3)c(=O)c3ccccc3n12)NCCCN1CCCCC1 | -6.42% | 7.31 µM [falling, partial curve, poor fit] |  |
| CCSC1=C(C#N)C2(CCCCC2)C2=C(CC(C)(C)CC2=O)N1 | 28.3% | 29.1 µM [rising, single point] |  |
| Cc1cc(-c2nnc3n2N=C(c2ccccc2)CS3)n[nH]1 | 32.7% | 0.731 µM [rising, partial curve, poor fit] |  |
| COc1ccccc1CNC(=O)c1ccc2c(=O)n(CC3CCCO3)c(=S)[nH]c2c1 (stereo not drawn) | -6.67% |  |  |
| N#Cc1ccccc1S(=O)(=O)N1CCN(C(=O)c2cn(-c3ccccc3)nc2-c2cccnc2)CC1 | 6.02% | 6.51 µM [falling, single point] | 1.84 µM [falling, single point] |
| COC(=O)c1scc(C)c1NC(=O)Nc1ccccc1 | 6.19% | 3.26 µM [falling, partial curve] | 5.17 µM [falling, partial curve] |
| CCCC(C(=O)NCCc1ccc(S(N)(=O)=O)cc1)c1ccccc1 (stereo not drawn) | 1.32% | 0.398 µM [falling, single point] |  |
| NNC(=O)CSc1c(-c2ccccc2)c2cc(Cl)ccc2[nH]c1=O | 20.2% |  |  |
| COCCNC(=O)c1oc2ccc3c(c2c1C)C(O)CC(C)(C)O3 (stereo not drawn) | 4.26% |  |  |
| CCn1c(=S)sc2c(=O)n(CC(=O)NC(C)CCc3ccccc3)c(C)nc21 (stereo not drawn) | -0.306% | 32.6 µM [rising, single point] |  |
| O=C(CSc1nnc(-c2ccco2)n1Cc1ccco1)Nc1ccccc1 | -0.209% | 0.517 µM [rising, full curve, poor fit] |  |
| CCN1CCN(c2ccc(S(=O)(=O)N3CCCCC3)cc2NC(=O)c2cc3ccccc3o2)CC1 | -25% |  |  |
| COc1ccc(CCC(=O)Nc2cc([N+](=O)[O-])ccc2OC)cc1 | 19% | 0.259 µM [rising, full curve] |  |
| Cc1ccsc1C(=O)OCC(=O)c1ccc[nH]1 | -4.89% | 6.51 µM [falling, single point] |  |
| O=C(NNC(=O)C1CC1c1ccccc1)c1ccccc1[N+](=O)[O-] (stereo not drawn) | -17.8% | 9.2 µM [rising, partial curve, poor fit] |  |
| CN(C)/C=C(\C(=O)c1ccccc1)c1nnnn1-c1ccc(F)cc1 | -6.93% |  | 0.411 µM [falling, single point] |
| COc1ccc(C(=O)Nc2ccc3ccccc3n2)cc1OC | -26.3% | 0.058 µM [falling, full curve, poor fit] |  |
| COc1ccc([C@@H]2[C@@H]3C(=O)N(C(C)(C)C)C(=O)[C@@H]3[C@]3(CC(C)C)C(=O)N(c4ccc(C(F)(F)F)cc4)C(=O)N23)cc1 |  | 29.1 µM [falling, single point] |  |

— PubChem BioAssay AID2685 (National Center for Advancing Translational Sciences (NCATS), 2010)
